{
  "source": "patent EP0807435A2",
  "about": "“Indirect HMG-CoA-reductase inhibitor” (Sertürner Arzneimittel GmbH, priority 1996, dated 1997)",
  "tested_on": "HMG-CoA-Reduktase",
  "assay": "Indirect inhibition of the enzyme HMG-CoA reductase",
  "details": "even at very high doses; partial inhibition only",
  "note": "The name of at least one read-out is uncertain.",
  "data": [
    {"smiles": "O=c1cc(-c2ccc(O)c(O)c2)oc2cc(O)cc(O)c12", "note": "[Luteolin, 31,41,5-Tetrahydroxyflavon]", "values": [
      {"measurement": "Hemmung des Enzyms HMG-CoA-Reduktase", "result": "< 100", "unit": "%"}
    ]}
  ]
}
